Data taken from ChEMBL document CHEMBL3988442, “University of Dundee, Small-Polar-MMV Screening Library” (2021).

By UniProt entry, the sequences of proteins in these tests, tags left out. Residues count along the entry.
UniProt I6X8D2, whole entry: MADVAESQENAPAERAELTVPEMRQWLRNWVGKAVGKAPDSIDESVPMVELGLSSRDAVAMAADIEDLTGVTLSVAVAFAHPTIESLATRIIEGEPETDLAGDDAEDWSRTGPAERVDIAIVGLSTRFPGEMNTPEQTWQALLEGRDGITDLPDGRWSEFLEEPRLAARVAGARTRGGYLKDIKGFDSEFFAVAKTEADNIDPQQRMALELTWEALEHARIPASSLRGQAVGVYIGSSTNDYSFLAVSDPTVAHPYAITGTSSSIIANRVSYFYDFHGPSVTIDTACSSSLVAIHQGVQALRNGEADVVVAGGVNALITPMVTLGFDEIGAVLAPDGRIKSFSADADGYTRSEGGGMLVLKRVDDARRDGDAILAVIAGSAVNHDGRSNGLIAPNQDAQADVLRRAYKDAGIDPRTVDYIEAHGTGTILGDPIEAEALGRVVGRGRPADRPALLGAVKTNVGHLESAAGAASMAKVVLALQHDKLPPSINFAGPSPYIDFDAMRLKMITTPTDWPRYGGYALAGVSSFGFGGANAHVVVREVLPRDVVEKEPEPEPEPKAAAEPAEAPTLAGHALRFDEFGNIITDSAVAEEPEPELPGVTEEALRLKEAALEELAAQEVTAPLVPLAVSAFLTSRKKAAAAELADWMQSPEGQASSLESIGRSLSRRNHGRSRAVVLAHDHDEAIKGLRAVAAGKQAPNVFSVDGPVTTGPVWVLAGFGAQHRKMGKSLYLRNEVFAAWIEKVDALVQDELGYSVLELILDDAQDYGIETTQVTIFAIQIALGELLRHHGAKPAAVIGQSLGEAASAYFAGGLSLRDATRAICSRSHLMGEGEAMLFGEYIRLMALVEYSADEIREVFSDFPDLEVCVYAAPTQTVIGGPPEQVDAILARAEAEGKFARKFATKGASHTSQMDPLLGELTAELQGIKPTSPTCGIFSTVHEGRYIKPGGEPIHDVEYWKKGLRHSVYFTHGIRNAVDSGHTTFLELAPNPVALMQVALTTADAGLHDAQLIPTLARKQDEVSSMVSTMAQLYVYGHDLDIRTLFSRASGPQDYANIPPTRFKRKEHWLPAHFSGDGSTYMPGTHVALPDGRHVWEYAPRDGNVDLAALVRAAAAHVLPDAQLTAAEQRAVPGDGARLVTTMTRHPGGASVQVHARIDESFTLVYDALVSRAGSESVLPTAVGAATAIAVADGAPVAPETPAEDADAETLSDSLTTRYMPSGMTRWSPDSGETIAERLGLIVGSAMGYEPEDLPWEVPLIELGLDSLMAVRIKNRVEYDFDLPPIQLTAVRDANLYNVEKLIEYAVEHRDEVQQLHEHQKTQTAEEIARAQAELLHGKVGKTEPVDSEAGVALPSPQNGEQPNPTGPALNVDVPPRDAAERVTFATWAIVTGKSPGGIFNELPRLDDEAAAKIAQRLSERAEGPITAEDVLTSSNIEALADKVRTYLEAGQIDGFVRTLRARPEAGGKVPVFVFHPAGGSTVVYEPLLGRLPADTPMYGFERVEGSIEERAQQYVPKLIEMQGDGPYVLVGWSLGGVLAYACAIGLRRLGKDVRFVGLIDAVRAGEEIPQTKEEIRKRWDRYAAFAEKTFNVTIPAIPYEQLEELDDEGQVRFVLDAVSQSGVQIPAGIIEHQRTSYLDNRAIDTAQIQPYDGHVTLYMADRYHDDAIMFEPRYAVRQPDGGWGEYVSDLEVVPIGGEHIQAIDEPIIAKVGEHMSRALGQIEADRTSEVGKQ
UniProt Q8IDJ8, 1-583: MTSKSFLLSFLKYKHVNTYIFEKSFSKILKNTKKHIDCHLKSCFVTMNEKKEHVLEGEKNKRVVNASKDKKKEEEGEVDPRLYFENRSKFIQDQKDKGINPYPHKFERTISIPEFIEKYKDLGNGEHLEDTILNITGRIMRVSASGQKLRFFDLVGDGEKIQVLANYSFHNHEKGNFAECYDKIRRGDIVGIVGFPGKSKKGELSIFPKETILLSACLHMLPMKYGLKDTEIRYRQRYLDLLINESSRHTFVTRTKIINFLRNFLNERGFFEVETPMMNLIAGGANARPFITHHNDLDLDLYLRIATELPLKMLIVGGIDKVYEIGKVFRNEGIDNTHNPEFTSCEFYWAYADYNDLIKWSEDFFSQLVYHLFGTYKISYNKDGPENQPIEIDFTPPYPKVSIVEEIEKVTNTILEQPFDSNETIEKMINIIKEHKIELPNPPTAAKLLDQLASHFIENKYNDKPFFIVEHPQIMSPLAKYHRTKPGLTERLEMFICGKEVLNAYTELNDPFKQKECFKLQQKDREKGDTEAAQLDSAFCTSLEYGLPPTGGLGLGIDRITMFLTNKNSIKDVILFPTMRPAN
UniProt P9WNZ1, whole entry: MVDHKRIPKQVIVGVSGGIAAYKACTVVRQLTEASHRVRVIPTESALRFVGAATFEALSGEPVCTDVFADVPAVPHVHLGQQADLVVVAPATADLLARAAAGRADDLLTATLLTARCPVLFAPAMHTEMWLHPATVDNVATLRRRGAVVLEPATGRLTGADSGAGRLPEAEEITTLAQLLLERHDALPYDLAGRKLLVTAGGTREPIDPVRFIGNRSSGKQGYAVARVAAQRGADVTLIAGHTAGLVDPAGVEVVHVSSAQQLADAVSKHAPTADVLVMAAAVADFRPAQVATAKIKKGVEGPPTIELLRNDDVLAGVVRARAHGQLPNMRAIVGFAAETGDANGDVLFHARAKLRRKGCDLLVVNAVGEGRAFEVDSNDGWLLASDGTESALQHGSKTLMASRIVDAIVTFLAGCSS

Results are given as percent effect. The record does not define 0% and 100%; most values in the screen are far below 50% and negative numbers occur (in some assays of this library far below -100). Compounds were drawn at random from those tested, without regard to their results. Two or more numbers in one place are separate tests of the same structure; such repeats can differ widely. A dash means the value is not listed here; it may have been measured.

Pks13 thioesterase: 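Enzyme assay of the thioesterase domain of polyketide synthase 13; the read-out is not stated. Target: Polyketide synthase Pks13, Mycobacterium tuberculosis (UniProt I6X8D2). Tested at 30 µM. Higher reads as stronger inhibition (inferred from which compounds were picked for retests). Size under these conditions: about 67,000 compounds, about 300 of them at 50% or above in at least one test.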
PfKRS1: 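Enzyme assay of the cytosolic lysyl-tRNA synthetase in 384-well plates, read by luminescence. Target: Lysine-tRNA ligase, Plasmodium falciparum 3D7 (UniProt Q8IDJ8). Compounds at 30 µM. Direction is inferred from only a few compounds that gave an IC50; most scored high, so higher reads as stronger inhibition. Of about 69,000 compounds tested this way, about 49 (0.071%) reached 50% or more in at least one test.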
CoaBC: 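Coenzyme A biosynthesis protein CoaBC, Mycobacterium tuberculosis (UniProt P9WNZ1). Enzyme assay of CoaBC with a phosphate dye (Biomol Green) read at 650 nm. Tested at 30 µM. Higher reads as stronger inhibition, judged from the few compounds that gave an IC50. Most strong results did not repeat in a second test. Size under these conditions: about 67,000 compounds, about 40 of them at 50% or above in at least one test.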

Compound,Pks13 thioesterase,PfKRS1,CoaBC
Cc1cc(C)n(CC2CN(Cc3nc4ccccc4s3)CCO2)n1 (configuration not stated),-4.192,-0.8816,2.609
O=C(NCc1cccc(F)c1)N1CCc2ncnc(NC3CC3)c2CC1,-9.484,2.217,4.444
Cc1cccc2c1nc(CCO)n2-c1ccc(NS(C)(=O)=O)nc1,11.01,6.762,3.581
CCN(CC1CCCO1)C(=O)Nc1cccc(Cl)c1OC (configuration not stated),-22.38,-0.7967,16.23
CCCn1nc(C)c2c1NC(=O)CC2c1ccc(CN2CCCC2)s1 (configuration not stated),-21.56,-1.141,10.49
CS(=O)(=O)NCc1cc(-c2cc(F)cc(F)c2)nc(N2CCOCC2)n1,22.48,1.92,3.735
CN(C)C[C@]12COC[C@H]1CN(Cc1ccccn1)C2,-13.7,5.156,9.165
COc1ccc(C(NC(=O)c2cccc[n+]2[O-])C2CC2)cc1 (configuration not stated),-41.19,2.069,3.043
COc1ccc(CN(C(=O)C(C)SC)c2cnn(C)c2)c(OC)c1 (configuration not stated),-,7.686,3.481
Cc1cnn(CCNCC(O)c2ccc(S(C)(=O)=O)cc2)c1 (configuration not stated),-15.31,1.516,8.036
N#CC1(C(=O)N2C[C@H](Nc3ncccn3)[C@@H](C3CC3)C2)CCOCC1,3.38,1.852,3.132
Cc1nc(CCN(C)C(=O)C2COc3ccccc3C2)no1 (configuration not stated),-21.24,0.7004,-0.9091
Cc1nc(CNC(=O)CCN2CCN(c3ccccc3)CC2)oc1C,6.481,7.344,2.917
CCc1ccc(CN2CC[C@H]3[C@H]2CC(=O)N3Cc2cccc(C)n2)o1,-14.57,5.774,5.412
Cc1nc(N2CCCC(OCc3ccccn3)C2)c2c(C)noc2n1 (configuration not stated),-7.077,2.538,0.4938
O[C@H]1CN(Cc2ccc3c(c2)OCCO3)CC[C@@]12CCCO2,6.869,-0.4531,-4.136
Cc1cc(C)n(CC2CN(Cc3nc(C)c(C)o3)CCO2)n1 (configuration not stated),-19.09,2.492,-5.362
CN(Cc1cccnc1)CC1CC12CCN(Cc1nccs1)CC2 (configuration not stated),-3.773,-2.88,62.37 and 16.93
CC(C)c1nn(C)c(N(C)C)c1CNCC(O)COc1ccccc1 (configuration not stated),-23.25,4.452,5.33
CCC[C@@H]1CN(Cc2ccccc2-c2ccco2)C[C@H]1NC(C)=O,11.61,-0.3594,-0.1272
CS(=O)(=O)N1CCCC(C(=O)N2CCOc3ccccc32)C1 (configuration not stated),-8.876,7.829,11.39
Cc1nn(C)c(C)c1CCC(=O)NCc1cccnc1OC1CCCC1,-33.91,6.76,-2.564
COc1ccc(N2CCN(C(=O)OC(C)(C)C)C(C(=O)O)C2)cc1 (configuration not stated),-0.05238,0.4068,-5.938
CN(C)c1ncc(CN2CCCC(Nc3ccc4c(c3)OCCO4)C2)s1 (configuration not stated),5.66,-2.152,9.794 and 40.33
Cc1ncsc1CCN(C)Cc1ccc(CO)o1,1.462,1.913,4.668
Cc1ccc(NC2CCN(C(=O)CCc3ccncc3)CC2)nn1,-5.063,4.106,0.6579
COc1ccnc(N2CCC3(CCCN(C(C)C)C3=O)C2)n1 (configuration not stated),-40.46,-3.744,9.504
Cc1ccc2nc(C)cc(NCCNS(=O)(=O)c3cn(C)nc3C)c2c1,17.04,0.4721,-1.104
Cc1noc([C@]23COC[C@H]2CN(Cc2cc(C)on2)C3)n1,-4.636,1.882,-
CCc1nc(C)c(CNC(=O)CCCN2CCCCC2)s1,-6.095,-0.4242,12.96
Cc1ncc(CN2CCc3c(nc4cc(C5CC5)nn4c3O)C2)n1C,-26.82,0.8154,9.202
COc1ccc(CN2CCc3c(CNC(=O)CC#N)nn(C)c3C2)cc1,-25.69,-2.077,-36.67
Cc1nn(C)c(C)c1OCC(=O)NCC(O)c1ccccc1F (configuration not stated),-22.92,1.078,3.213
Cc1ccc(NC(C)C(=O)N(C)Cc2cccc(F)c2)cc1C(N)=O (configuration not stated),-35.17,3.349,7.051
Cc1cc(C)nc(NC2CCCN(CCCc3ccccc3)C2)n1 (configuration not stated),31.75,-1.854,-2.694
COc1cc2c(cc1OC)S(=O)(=O)N(Cc1ccccc1C)C2=O,19.23,-1.839,-
Cc1noc(C)c1S(=O)(=O)N(CC(N)=O)CC(C)C,-3.92,4.533,7.673
O=C(Cc1c[nH]c2ncccc12)NCC(O)c1ccccc1F (configuration not stated),-26.08,-3.338,-0.2237
Cn1nccc1CN1CCOC(c2ccc(-c3cncnc3)cn2)C1 (configuration not stated),1.624,1.934,-9.443
Cc1cc(F)c2c(c1)CCCN2Cc1cc(=O)n(C)c(=O)n1C,-5.814,3.191,-2.357
O=C1CC2(CCN(Cc3ccncc3)C2)CN1c1ccc2c(c1)OCO2 (configuration not stated),-10.69,-1.411,2.941
CCn1cc(-c2cc(-c3cc(CC(=O)O)cs3)nc(N)c2C#N)c(C)n1,-51.75,4.356,4.069
CCc1nnc(N2C[C@@H](NC(C)=O)[C@H](c3ccc(C)o3)C2)s1,-3.541,8.091,-0.9926
Cn1cc(S(=O)(=O)Nc2ccc(Cl)cn2)cc1C(N)=O,-14.06,5.4,-4.97
O=C(NCC1CC[C@@]2(CNCCOC2)O1)c1cnccn1 (some centres not stated),-3.528,-11.35,-27.27
CCc1nnc2n1CCN(Cc1ccc(C(=O)N3CCCC3)cc1)C2,-4.405,3.139,6.408
Cc1cnn(CC(C)NCc2nc(-c3cccs3)no2)c1 (configuration not stated),3.082,1.852,1.956
CN(CC(=O)NC1(C)CCS(=O)(=O)C1)Cc1ccc(Br)cc1 (configuration not stated),-17.15,-1.71,1.044
COc1cccc(S(=O)(=O)NC2CNC(=O)C2)c1 (configuration not stated),-27.22,-1.866,-4.051
CCCSc1nn(CCN(C)C)c2nc3sc(C)c(CC)c3c(=O)n12,-12.16,7.53,1.899
Cc1ccc(N2N=C(C(N)=O)S(=O)(=O)c3cccnc32)cc1,-1.061,6.521,-1.337
Cc1occc1C(=O)N1CCC[C@]2(C[C@@H](OCc3ccccn3)CO2)C1,-15.16,3.157,4.5
CC(SCc1ccc(Br)c2cccnc12)C(N)=O (configuration not stated),-2.288,0.9116,5.466
CC(C)c1nc2c(n1C)CCN(Cc1nc(-c3cccs3)no1)C2,-11.24,2.018,2.698
O=C(Nc1c(N2CCCC2)cccc1N1CCCC1)c1cnccn1,-16.49,6.891,-12
COc1ccc(NC(=O)Cn2ccc3c(=O)n(C)ccc32)cc1OC,-5.725,3.686,1.324
CC(=O)NCC(=O)N1Cc2cnc(CC(C)C)nc2C1,7.095,5.739,1.118
Cc1noc(C)c1-c1cncc(C2CCCN2Cc2ccncc2)n1 (configuration not stated),-43.27,6.04,-6.389
C1CN(CC2CCOCC2)Cc2c(CN3CCOCC3)nnn2C1,-23.9,2.042,0.2179
Cc1nc(-c2cccc(C(=O)O)c2)cc(C2CCCN(C(C)C)C2)n1 (configuration not stated),-9.188,0.6453,-2.53
Cc1cc(C)c(CNC(=O)C2COc3ccccc3C2)c(=O)[nH]1 (configuration not stated),3.002,13.89,3.891
O=C(Cc1ccsc1)N1CCCC(CNS(=O)(=O)Cc2ccccc2)C1 (configuration not stated),-31.25,7.063,-3.62
CN(C)C(=O)CN1CCCC1c1cccc(Cc2ccccc2F)n1 (configuration not stated),8.938,5.152,3.148
Cn1cc(Br)c(=O)c(NS(=O)(=O)c2ccccc2F)c1,-9.273,2.073,-2.985
CC(C)C(=O)N1CCC(C2C(=O)Nc3ccccc32)CC1 (configuration not stated),-25.69,1.285,5.344
O=C(C1=CCCC1)N1C[C@H](OCc2cccnc2)[C@H]2OCCC[C@H]21,-32.59,1.719,13.68
CCc1cc(CN(C)C(=O)c2cnn[nH]2)on1,-43.44,7.486,3.074